Test results from patent publication US20030073654A1, “Stabilized transient gene expression” (Genespan Corporation, priority 1996, published 2003).

Assay: pH of aqueous solutions of the compounds
Format: physicochemical
Conditions: stock solutions prepared in culture media diluted with deionized water
Description: The pH values shown in Table 1 were determined in aqueous solutions made by diluting stock solutions prepared in culture media with deionized water.

pH (H20): 7.37
SMILES: NCCC[C@H](N)C(=O)O [ORNITHINE]
